The target of assay [1] is T1, ETTIN (ETT)/ARF3 fused to the GAL4 DNA-binding domain (ETT-BD) (Arabidopsis) (UniProt O23661).
T1 sequence: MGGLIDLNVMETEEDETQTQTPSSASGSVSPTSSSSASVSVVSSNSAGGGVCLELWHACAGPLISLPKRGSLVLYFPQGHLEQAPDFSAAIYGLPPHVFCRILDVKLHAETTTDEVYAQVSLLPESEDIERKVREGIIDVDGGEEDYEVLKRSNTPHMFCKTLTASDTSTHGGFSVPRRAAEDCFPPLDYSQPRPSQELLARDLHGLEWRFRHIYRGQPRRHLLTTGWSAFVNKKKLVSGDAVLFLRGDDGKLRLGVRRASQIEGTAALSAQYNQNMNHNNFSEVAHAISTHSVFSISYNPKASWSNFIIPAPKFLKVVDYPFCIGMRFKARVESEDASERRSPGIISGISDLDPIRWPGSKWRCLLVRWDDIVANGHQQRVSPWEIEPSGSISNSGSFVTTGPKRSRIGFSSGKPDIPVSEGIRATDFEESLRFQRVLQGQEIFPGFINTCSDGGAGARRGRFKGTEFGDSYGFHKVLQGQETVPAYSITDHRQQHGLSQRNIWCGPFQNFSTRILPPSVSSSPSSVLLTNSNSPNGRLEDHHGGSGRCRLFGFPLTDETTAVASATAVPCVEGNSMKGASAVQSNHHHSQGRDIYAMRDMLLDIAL
Nature of the assay: two-hybrid; yeast AH109, 28°C, cotransformation; YSD lacking Leu, Trp, adenine and His with 1, 2.5 and 5 mM 3-AT; no IAA (ETT-IND also with NAA or 2,4-D in the medium).

Amino acid sequences for entries named in this document (tags omitted).
UniProt Q9FJV5: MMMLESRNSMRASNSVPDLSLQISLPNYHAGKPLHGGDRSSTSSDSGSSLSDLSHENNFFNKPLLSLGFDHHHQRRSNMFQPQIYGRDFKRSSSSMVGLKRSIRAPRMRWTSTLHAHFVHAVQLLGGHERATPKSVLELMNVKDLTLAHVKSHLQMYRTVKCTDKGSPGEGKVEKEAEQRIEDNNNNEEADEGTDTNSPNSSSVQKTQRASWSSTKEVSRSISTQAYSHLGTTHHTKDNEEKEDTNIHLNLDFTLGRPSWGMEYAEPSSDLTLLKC

Assay [2] deals with T2, ETT in pYFPN43 (pYFPN-ETT) for BiFC (Arabidopsis) (UniProt O23661).
T2 sequence: T1 sequence
Briefly: split reporter; BiFC with pYFPN-ETT and pYFPC-IND plus p19 (pEAQ-HT); images 72 h after infiltration; also with 1 mM IAA, NAA or 2,4-D in lanolin applied 24 and 48 h after infiltration.

Assay [3] deals with T3, ETT-CFP expressed from pETT(3.7kb)::ETT-CFP in plants (Arabidopsis) (UniProt O23661).
T3 sequence: T1 sequence
Briefly: FRET or BRET; in vivo CFP-YFP FRET by acceptor photobleaching in nuclei of stylar cells (stage 10-11) of plants expressing ETT-CFP and IND-YFP; 200 nuclei.

The target of assay [4] is T4, ETT-CFP (FRET/FLIM in protoplasts) (Arabidopsis) (UniProt O23661).
T4 sequence: T1 sequence
Briefly: FRET or BRET; FRET/FLIM, CFP lifetime, in transfected Arabidopsis mesophyll protoplasts; n = 28 cells. Background: Bioluminescence resonance energy transfer reports proximity on the nanometre scale.

Assay [5] has as its target T5, ETT-C452S-C506S (ETT^2C-S) fused to the GAL4 DNA-binding domain (Arabidopsis) (UniProt O23661).
T5 sequence: T1 sequence with C452S, C506S
Nature of the assay: two-hybrid; as a2, with IAA (dissolved in ethanol) added to the medium.

The target of assay [6] is T6, SPATULA (SPT) fused to the GAL4 DNA-binding domain (SPT-BD) (Arabidopsis) (UniProt Q9FUA4).
T6 sequence: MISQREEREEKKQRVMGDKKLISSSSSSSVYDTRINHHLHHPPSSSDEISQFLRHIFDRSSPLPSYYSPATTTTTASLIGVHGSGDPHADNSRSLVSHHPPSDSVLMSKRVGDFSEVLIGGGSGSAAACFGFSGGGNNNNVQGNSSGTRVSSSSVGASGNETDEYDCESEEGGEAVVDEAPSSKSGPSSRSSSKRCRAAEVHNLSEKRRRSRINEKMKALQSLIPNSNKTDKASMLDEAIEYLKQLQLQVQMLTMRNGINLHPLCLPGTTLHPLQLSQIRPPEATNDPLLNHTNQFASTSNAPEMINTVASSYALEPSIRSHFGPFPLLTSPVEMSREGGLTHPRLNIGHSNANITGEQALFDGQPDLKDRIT
The assay is described as above.

The target of assay [7] is T1, ETTIN (ETT)/ARF3 fused to the GAL4 DNA-binding domain (ETT-BD) (Arabidopsis). Briefly: two-hybrid; yeast AH109, 28°C, cotransformation; YSD lacking Leu, Trp, adenine and His with 1, 2.5 and 5 mM 3-AT; no IAA (ETT-IND also with NAA or 2,4-D in the medium). This is another data set of the same source.
The target in assay [8] is T5, ETT-C452S-C506S (ETT^2C-S) fused to the GAL4 DNA-binding domain (Arabidopsis). The description is as above.
Assay [9] concerns the target T6, SPATULA (SPT) fused to the GAL4 DNA-binding domain (SPT-BD) (Arabidopsis). The description is as above.

Changes are numbered by the printed parent chain. Like-named read-outs stand apart in the source and are kept apart here. Results are given in words; binding and its absence hold for the method and conditions named. For part of these data: In cells and extracts the contact can be indirect. Some entries that bind do so weakly or less than the wild type. For part of these data: Tags and fused reporters may be left off the sequences shown.

For “ABERRANT TESTA SHAPE (ATS; also known as KANADI4) fused to the AD domain (from UniProt Q9FJV5 1-276)”, the binding result in [1] is given as “binds”.

B1: IND in pYFPC43 (pYFPC-IND) for BiFC (protein, UniProt O81313 1-198)
chain: MENGMYKKKGVCDSCVSSKSRSNHSPKRSMMEPQPHHLLMDWNKANDLLTQEHAAFLNDPHHLMLDPPPETLIHLDEDEEYDEDMDAMKEMQYMIAVMQPVDIDPATVPKPNRRNVRISDDPQTVVARRRRERISEKIRILKRIVPGGAKMDTASMLDEAIRYTKFLKRQVRILQPHSQIGAPMANPSYLCYYHNSQP
Turning to B1, the binding entry in [2] is “binds”.

B2: IND-YFP expressed from pIND (3.2kb)::IND-YFP in plants (protein, UniProt O81313 1-198)
chain: B1 chain
Take B2: in assay [3], the binding entry is “binds”.

B3: IND-YFP (FRET/FLIM in protoplasts) (protein, UniProt O81313 1-198)
chain: B1 chain
Regarding B3, the binding result in assay [4] is reported as “binds”.

B4: … (IND) fused to the GAL4 activation domain (IND-AD) (protein, UniProt O81313 1-198)
chain: B1 chain
Turning to B4, the binding result in assay [5], in assay [6], in assay [7], in assay [8] and in assay [9] was “binds” throughout.

The values are drawn from paper PMC5110995.
